Data published in patent US6635743.
Results are given in words; binding and its absence hold for the method and conditions named. Some binding calls cover weakened binding; strength is not graded here.

Protein sequences, listed by entry. Tags and fused reporters are not part of them. Residues count along the entry.
UniProt Q9QYH9: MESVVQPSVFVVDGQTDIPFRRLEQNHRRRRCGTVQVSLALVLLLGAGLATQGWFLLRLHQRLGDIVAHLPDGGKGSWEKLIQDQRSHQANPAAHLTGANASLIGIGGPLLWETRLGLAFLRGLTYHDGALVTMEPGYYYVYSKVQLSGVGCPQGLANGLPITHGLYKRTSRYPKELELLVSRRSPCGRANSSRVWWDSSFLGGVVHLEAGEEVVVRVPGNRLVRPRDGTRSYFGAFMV
UniProt P50284, residues 31-223: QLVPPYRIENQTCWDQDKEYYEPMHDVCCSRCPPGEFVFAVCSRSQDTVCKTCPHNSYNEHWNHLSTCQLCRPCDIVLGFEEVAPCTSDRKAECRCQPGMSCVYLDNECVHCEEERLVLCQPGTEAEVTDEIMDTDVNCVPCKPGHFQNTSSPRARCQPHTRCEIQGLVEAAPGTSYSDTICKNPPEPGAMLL

Molecular target: mouse AIM II (LIGHT) expressed on cells (mouse) (UniProt Q9QYH9)
Assay: flow cytometry on 293 cells transfected with pmAIM II, FITC anti-human IgG

binding: binds
Substance: mouse LTβR-Ig fusion protein (from UniProt P50284 31-223) (Fc fusion)
